Measured values as given in publication PMC2917364.
For at least one entry, the source does not settle the construct or the ends of the probe. For part of these data: No signal at the amounts used counts as a negative. For part of these data: At least one verdict was read from the data and is not stated in words by the source. For part of these data: Tags and fusion partners may be left off the protein sequences shown. For part of these data: The comparison behind a weaker result is the experiment's own reference, which may not be listed here.

Amino acid sequences for entries named in this document (tags omitted). A change or cut given only in a name is not applied to a line headed by its entry. Residues count along the entry.
UniProt P51608, 77-164: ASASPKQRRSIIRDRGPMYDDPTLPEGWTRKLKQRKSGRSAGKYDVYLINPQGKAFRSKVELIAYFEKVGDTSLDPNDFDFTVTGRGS
UniProt Q9P1Z0: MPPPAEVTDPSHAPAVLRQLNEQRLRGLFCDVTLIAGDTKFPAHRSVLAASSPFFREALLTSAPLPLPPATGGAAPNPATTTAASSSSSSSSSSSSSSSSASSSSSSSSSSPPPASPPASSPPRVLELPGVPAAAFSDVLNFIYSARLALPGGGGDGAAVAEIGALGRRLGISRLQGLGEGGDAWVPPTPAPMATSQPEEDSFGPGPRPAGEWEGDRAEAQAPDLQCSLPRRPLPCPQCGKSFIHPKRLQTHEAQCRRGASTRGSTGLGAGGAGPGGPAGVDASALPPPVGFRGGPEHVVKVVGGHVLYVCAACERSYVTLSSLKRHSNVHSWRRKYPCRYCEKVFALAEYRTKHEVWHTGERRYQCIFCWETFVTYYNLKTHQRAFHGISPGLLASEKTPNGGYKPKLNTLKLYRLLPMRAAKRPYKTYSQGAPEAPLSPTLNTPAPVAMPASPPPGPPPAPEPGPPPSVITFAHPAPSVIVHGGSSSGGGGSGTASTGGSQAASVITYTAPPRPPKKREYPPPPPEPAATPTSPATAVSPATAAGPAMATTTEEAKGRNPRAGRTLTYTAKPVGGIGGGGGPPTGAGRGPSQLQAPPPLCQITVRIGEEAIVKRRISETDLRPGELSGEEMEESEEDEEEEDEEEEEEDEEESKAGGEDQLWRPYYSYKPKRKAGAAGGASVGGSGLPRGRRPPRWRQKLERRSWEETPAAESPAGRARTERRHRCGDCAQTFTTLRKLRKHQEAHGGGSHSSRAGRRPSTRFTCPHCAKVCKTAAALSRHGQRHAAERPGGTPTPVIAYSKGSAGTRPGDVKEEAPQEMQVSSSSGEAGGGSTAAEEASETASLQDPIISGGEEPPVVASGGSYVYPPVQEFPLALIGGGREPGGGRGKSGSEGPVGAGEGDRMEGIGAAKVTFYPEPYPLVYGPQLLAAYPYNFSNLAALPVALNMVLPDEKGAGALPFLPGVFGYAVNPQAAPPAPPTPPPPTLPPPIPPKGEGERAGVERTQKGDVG

Key:
Test in all cases: EMSA
[1] = biological target: T1, MBP-MBD5 MBD (Homo sapiens) (UniProt Q9P267); conditions: 1 ug poly(dA-dC), no significant binding without competitor; 1 nM probe, 1 uM protein, 20 min at 25 C; 50 mM Tris-HCl pH 8, 1 mM EDTA, 1 mM DTT, 1 mM PMSF, 5% glycerol; 6% PAGE in 0.5x TBE at 4 C; recombinant protein; residues 1-93; protein details: MBP; label: FAM
T1 sequence (looked up): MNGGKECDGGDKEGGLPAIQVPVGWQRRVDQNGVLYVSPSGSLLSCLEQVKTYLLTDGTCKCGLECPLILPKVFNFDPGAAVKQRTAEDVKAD

[2] = biological target: T2, 6xHis-MBD5 MBD (Homo sapiens) (UniProt Q9P267); conditions: 1 nM probe, 1 uM protein, 20 min at 25 C, 50 mM Tris-HCl pH 8, 1 mM EDTA, 1 mM DTT, 1 mM PMSF, 6% PAGE in 0.5x TBE at 4 C, recombinant protein, residues 1-93, protein details: 6xHis (N-terminal), label: FAM
T2 sequence (looked up): T1 sequence (looked up)

[3] = biological target: T3, MBP-MBD6 MBD (Homo sapiens) (UniProt Q96DN6); conditions: 1 ug poly(dA-dC), no significant binding without competitor; 1 nM probe, 1 uM protein, 20 min at 25 C; 50 mM Tris-HCl pH 8, 1 mM EDTA, 1 mM DTT, 1 mM PMSF, 5% glycerol; 6% PAGE in 0.5x TBE at 4 C; recombinant protein; residues 1-93; protein details: MBP; label: FAM
T3 sequence (looked up): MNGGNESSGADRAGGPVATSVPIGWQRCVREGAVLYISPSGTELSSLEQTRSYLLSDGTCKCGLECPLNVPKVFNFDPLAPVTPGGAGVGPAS

[4] = biological target: MBP-MeCP2 MBD (Homo sapiens) (UniProt P51608); conditions: 1 ug poly(dA-dC), stated as methylation-dependent interaction; 1 nM probe, 1 uM protein, 20 min at 25 C; 50 mM Tris-HCl pH 8, 1 mM EDTA, 1 mM DTT, 1 mM PMSF, 5% glycerol; 6% PAGE in 0.5x TBE at 4 C; recombinant protein; residues 77-164; protein details: MBP; label: FAM
[5] = biological target: T4, 6xHis-MBD6 MBD (Homo sapiens) (UniProt Q96DN6); conditions: 1 nM probe, 1 uM protein, 20 min at 25 C, 50 mM Tris-HCl pH 8, 1 mM EDTA, 1 mM DTT, 1 mM PMSF, 6% PAGE in 0.5x TBE at 4 C, recombinant protein, residues 1-93, protein details: 6xHis (N-terminal), label: FAM
T4 sequence (looked up): T3 sequence (looked up)

[6] = biological target: 6xHis-MeCP2 MBD (Homo sapiens) (UniProt P51608); conditions: 1 nM probe, 1 uM protein, 20 min at 25 C, 50 mM Tris-HCl pH 8, 1 mM EDTA, 1 mM DTT, 1 mM PMSF, 5% glycerol, 6% PAGE in 0.5x TBE at 4 C, recombinant protein, residues 77-164, protein details: 6xHis (N-terminal), label: FAM
[7] = biological target: T5, GST-MBD6 MBD (Homo sapiens) (UniProt Q96DN6); conditions: 1 ug poly(dI-dC); 5-methylcytosine at the single CpG; 1 nM probe, 1 uM protein, 20 min at 25 C; 50 mM Tris-HCl pH 8, 1 mM EDTA, 1 mM DTT, 1 mM PMSF, 5% …; 6% PAGE in 0.5x TBE at 4 C; recombinant protein; residues 1-93; protein details: GST; label: radiolabel
T5 sequence (looked up): T3 sequence (looked up)

[8] = biological target: GST-ZBTB4 zinc fingers (UniProt Q9P1Z0); conditions: 1 ug poly(dI-dC); 5-methylcytosine at the single CpG; 1 nM probe, 1 uM protein, 20 min at 25 C; 50 mM Tris-HCl pH 8, 1 mM EDTA, 1 mM DTT, 1 mM PMSF, 5% …; 6% PAGE in 0.5x TBE at 4 C; recombinant protein; protein details: GST; label: radiolabel
[9] = biological target: GST-MBD5 MBD (larger region) (Homo sapiens) (UniProt Q9P267); conditions: 1 ug poly(dI-dC); 5-methylcytosine at the single CpG; 1 nM probe, 1 uM protein, 20 min at 25 C; 50 mM Tris-HCl pH 8, 1 mM EDTA, 1 mM DTT, 1 mM PMSF, 5% …; 6% PAGE in 0.5x TBE at 4 C; recombinant protein; protein details: GST; label: radiolabel
[10] = 1 ug poly(dA-dC), also no binding without competitor, 5% …
[11] = limited poly(dA-dC) (500 ng per Methods), 5% glycerol
[12] = 200 ng poly(dA-dC), 5% glycerol

“CGCGACGACGCACCACGACGCACGACGCGAACGCGCCAA (double strand) [SL3 unmethylated]”: no binding [1]; no binding [2, 10]; no binding [3]. “CGCGACGACGCACCACGACGCACGACGCGAACGCGCCAA (double strand) [SL3 unmethylated]”: no binding [4]; no binding [5, 10]; no binding ([6]; 1 ug poly(dA-dC)).

“GTAGAAGTTCCCGCCATCACTATTG (double strand) [SL4 methylated]”: no binding [7]; binds [8]; no binding [9].

“TAGACATTGCCCTCGAGGTACCATGGATCCGATGTCGACCTCAAACCGAGACGAATTCCG (double strand) [SL2 unmethylated]”: no binding [2, 11]; no binding [5, 11]; binds more weakly ([6]; limited poly(dA-dC) (500 ng per Methods)).

“TAGTGCCCTCCGCCATGTACCATGGATCCGATGTACAT (double strand) [SL1 unmethylated]”: no binding [2, 12]; no binding ([2]; no competitor DNA, 5% glycerol); no binding [5, 12]. “TAGTGCCCTCCGCCATGTACCATGGATCCGATGTACAT (double strand) [SL1 unmethylated]”: no binding ([5]; no competitor DNA, 5% glycerol); no binding ([6]; 200 ng poly(dA-dC)); binds ([6]; no competitor DNA).
